A short description of this series: peptide synthesis. The settings on record: conjugation step, RP-HPLC.

“Glp-His-DPal-Ser-Tyr-DLys[dPEG3-Val-Cit-PABC-MMAE]-Leu-Arg-Pro-DAla-amide”: the “final HPLC purity” value is listed as 97.9%.

Source of the values: patent US20240082409A1 (priority 2020, published 2024).
